The list does not hold the whole screen: it gathers tests that were run many times, whatever their T/C, doses with no T/C, and many T/C values between a quarter and a half above the control. Further doses and runs are listed elsewhere. T/C: endpoint of the treated group in % of that of the vehicle group. Some doses have a count of surviving animals in place of a T/C: the source holds a T/C of zero for them, seemingly a mark for toxic or unscored doses. Some doses without a T/C left all or most animals alive at the check, yet need not have been tolerated: survival well below the control is almost never listed, so the zero probably covers shortened survival too. Counts of survivors are from the toxicity check (mostly the fifth day) where no day follows; animals may have died later. Schedule codes are those of the source, taken here to give the interval after Q, in days (D) or hours (H), and the number of doses after X. Some doses were run more than once; the values are given in rising order. Some schedule codes hold Z or #, which are not explained here. Where survival is the endpoint, this PubChem deposit counts one and a half times the control or more as active, and values a quarter to a half above the control carry no call in these data; other NCI protocols may use other cut-offs. Brackets with × give the number of equal values in this list. Some T/C values are followed by the survivors on the day toxicity was checked, most often the fifth; without a count, all were alive then.
System: L1210 leukemia ip in BDF1 mice, survival T/C
Test: NCI In Vivo Anticancer Drug Screen. Data for tumor model L1210 Leukemia (intraperitoneal) in B6D2F1 (BDF1) mice
Settings: T/C endpoint: mean survival time, higher T/C = longer survival
[1] = dose: 400.0 mg/kg/injection, schedule: Q01DX001 (ip), vehicle: Klucel (hydroxypropylcellulose) (HPC)
[2] = dose: 100.0 mg/kg/injection, schedule: Q04DX003 (ip), vehicle: saline with Tween-80
[3] = dose: 200.0 mg/kg/injection, schedule: Q04DX003 (ip), vehicle: saline with Tween-80
[4] = dose: 400.0 mg/kg/injection, schedule: Q04DX003 (ip), vehicle: saline with Tween-80
[5] = dose: 10.0 mg/kg/injection, schedule: Q01DX015 (ip), vehicle: water
[6] = dose: 10.0 mg/kg/injection, schedule: Q01DX Z (ip), vehicle: water
[7] = dose: 15.0 mg/kg/injection, schedule: Q01DX Z (ip), vehicle: water
[8] = dose: 20.0 mg/kg/injection, schedule: Q01DX Z (ip), vehicle: water
[9] = dose: 400.0 mg/kg/injection, schedule: Q01DX001 (ip), vehicle: saline
[10] = dose: 400.0 mg/kg/injection, schedule: Q04DX003 (ip), vehicle: Klucel (hydroxypropylcellulose) (HPC)
[11] = dose: 100.0 mg/kg/injection, schedule: Q01DX009 (ip), vehicle: Klucel (hydroxypropylcellulose) (HPC)
[12] = dose: 100.0 mg/kg/injection, schedule: Q04DX003 (ip), vehicle: Klucel (hydroxypropylcellulose) (HPC)
[13] = dose: 200.0 mg/kg/injection, schedule: Q04DX003 (ip), vehicle: Klucel (hydroxypropylcellulose) (HPC)

For `CC(C)C/C=N\N=C(N)N`, the survivor count (dose: 120.0 mg/kg/injection, schedule: Q01DX Z (ip), vehicle: saline) was 0 of 6, the survivor count (dose: 240.0 mg/kg/injection, schedule: Q01DX Z (ip), vehicle: saline) was 0 of 6 and the survivor count (dose: 240.0 mg/kg/injection, schedule: Q01DX Z (sc), vehicle: saline) was 2 of 6. The survivor count (dose: 480.0 mg/kg/injection, schedule: Q01DX Z (ip), vehicle: saline) was 0 of 6 and the survivor count (dose: 480.0 mg/kg/injection, schedule: Q01DX Z (sc), vehicle: saline) was 2 of 6.

With `Cc1nc(SCc2ccccc2)nc(N)c1CN` the survivor count [1] was 0 of 6.

With `O=S(=O)(F)c1cccc2nsnc12` the survivor count (dose: 200.0 mg/kg/injection, schedule: Q04DX003 (ip), vehicle: carboxymethylcellulose (CMC)) was 6 of 6.

With `CCOP(=O)(OCC)OCc1ccccc1` the survivor count (dose: 25.0 mg/kg/injection, schedule: Q04DX003 (ip), vehicle: saline with Tween-80) was 1 of 6, the survivor count (dose: 50.0 mg/kg/injection, schedule: Q04DX003 (ip), vehicle: saline with Tween-80) was 0 of 6 and the survivor count [2] was 0 of 6. The survivor count [3] was 0 of 6 and the survivor count [4] was 0 of 6.

With `COC(=O)c1ccccc1NC(=O)Nc1cccc(Cl)c1C` the survivor count (dose: 400.0 mg/kg/injection, schedule: Q01DX009 (ip), vehicle: Klucel (hydroxypropylcellulose) (HPC)) was 0 of 6.

In the case of `CCCCCC#CC(=O)OCC`, the survivor count (dose: 400.0 mg/kg/injection, schedule: Q01DX009 (ip), vehicle: saline with Tween-80) was 0 of 6.

With `FC(F)(F)c1ccc2c(c1)N(CCCN1CC[N+]3(CCOCC3)CC1)c1ccccc1S2` the survivor count (dose: 25.0 mg/kg/injection, schedule: Q01DX009 (ip), vehicle: saline) was 1 of 6, the survivor count (dose: 50.0 mg/kg/injection, schedule: Q04DX003 (ip), vehicle: saline) was 1 of 6 and the survivor count (dose: 100.0 mg/kg/injection, schedule: Q04DX003 (ip), vehicle: saline) was 0 of 6.

In the case of `CCCSCCSCCC`, the survivor count [3] was 6 of 6 and the survivor count [4] was 6 of 6.

For `CNC(C)(C)C(SSSC(c1ccc(Cl)cc1)C(C)(C)NC)c1ccc(Cl)cc1` (stereo not given), the survivor count (dose: 75.0 mg/kg/injection, schedule: Q01DX009 (ip), vehicle: saline with Tween-80) was 3 of 6, the survivor count [2] was 3 of 6 and the survivor count [3] was 0 of 6. For the same compound, the survivor count [4] was 0 of 6.

With `COc1cc2c3c(c4ccc(O)cc4c2cc1OC)[C@@H](O)[C@@H]1CCCN1C3` the T/C (dose: 5.0 mg/kg/injection, schedule: Q01DX Z (ip), vehicle: water) was 125 (2×) and 130 % of control, the T/C (dose: 6.0 mg/kg/injection, schedule: Q01DX Z (ip), vehicle: water) was 140 % of control and the survivor count (dose: 7.0 mg/kg/injection, schedule: Q01DX Z (ip), vehicle: water) was 0 of 6. The T/C (dose: 9.0 mg/kg/injection, schedule: Q01DX Z (ip), vehicle: water) was 128 % of control, the T/C [5] was 137 % of control and the survivor count [5] was 3 of 6. The T/C [6] was 130, 132, 145 % of control, the survivor count [6] was 0 of 6 and 5 of 6 and the T/C (dose: 10.0 mg/kg/injection, schedule: Q02DX005 (ip), vehicle: water) was 130 % of control. For the same compound, the survivor count (dose: 10.7 mg/kg/injection, schedule: Q01DX015 (ip), vehicle: water) was 0 of 6, the T/C (dose: 12.0 mg/kg/injection, schedule: Q01DX Z (ip), vehicle: water) was 136 % of control and the T/C [7] was 131, 145, 153 % of control. The survivor count [7] was 0 of 6, the survivor count (dose: 16.0 mg/kg/injection, schedule: Q01DX015 (ip), vehicle: water) was 0 of 6 and the T/C (dose: 20.0 mg/kg/injection, schedule: Q01DX005 (ip), vehicle: water) was 125 % of control. The survivor count (dose: 20.0 mg/kg/injection, schedule: Q01DX015 (ip), vehicle: water) was 0 of 6, the T/C [8] was 148 % of control and the survivor count [8] was 0 of 6. For the same compound, the T/C (dose: 20.0 mg/kg/injection, schedule: Q02DX005 (ip), vehicle: water) was 135 % of control, the survivor count (dose: 24.0 mg/kg/injection, schedule: Q01DX015 (ip), vehicle: water) was 0 of 6 and the survivor count (dose: 40.0 mg/kg/injection, schedule: Q01DX009 (oral), vehicle: water) was 6 of 6. The survivor count (dose: 40.0 mg/kg/injection, schedule: Q01DX015 (ip), vehicle: water) was 0 of 6.

In the case of `N#CC(c1ccc(N)cc1)c1ccc(F)cc1` (stereo not given), the survivor count [9] was 1 of 4.

With `CCCCCCCC(=O)Nc1ccc(C)cc1` the T/C [10] was 127 % of control [5 of 6 alive].

For `O=C(Nc1ccc(NC(=O)c2ccc(C3=NCCN3)cc2)cc1)Nc1ccc(C2=NCCN2)cc1`, the T/C (dose: 12.5 mg/kg/injection, schedule: Q01DX Z (ip), vehicle: carboxymethylcellulose (CMC)) was 127 % of control, the survivor count (dose: 225.0 mg/kg/injection, schedule: Q01DX Z (ip), vehicle: carboxymethylcellulose (CMC)) was 6 of 6 and the survivor count (dose: 500.0 mg/kg/injection, schedule: Q01DX Z (ip), vehicle: carboxymethylcellulose (CMC)) was 1 of 6.

With `CC1=NNC(=O)C1CCO` (stereo not given) the survivor count [11] was 5 of 6.

In the case of `CCN(CC)CCSC(=O)C(O)(c1ccc(C)cc1)c1ccc(C)cc1`, the survivor count (dose: 300.0 mg/kg/injection, schedule: Q01DX001 (ip), vehicle: other) was 0 of 6.

With `C[N+](C)(C)/N=C/c1ccccc1` the survivor count [11] was 0 of 6 and the survivor count (dose: 200.0 mg/kg/injection, schedule: Q01DX009 (ip), vehicle: Klucel (hydroxypropylcellulose) (HPC)) was 0 of 6.

For `CN1C(=O)CC(C(=O)CBr)(c2ccccc2)C1=O` (stereo not given), the survivor count [2] was 0 of 3 and 3 of 3, the survivor count [3] was 0 of 3 and the survivor count [4] was 0 of 3.

`NC(Cc1ccccc1)CC1CC1` (stereo not given) was tested, and the survivor count [12] was 3 of 6, the survivor count [13] was 0 of 6 and the survivor count [10] was 0 of 6.

`CS(=O)Cc1cccc2ccccc12` (stereo not given) was tested, and the survivor count [1] was 0 of 6.

With `CCOC(C(=O)O)(c1ccccc1)c1ccccc1` the survivor count (dose: 400.0 mg/kg/injection, schedule: Q04DX002 (ip), vehicle: Klucel (hydroxypropylcellulose) (HPC)) was 1 of 3.

With `OCC(Br)CCl` (stereo not given) the survivor count (dose: 100.0 mg/kg/injection, schedule: Q01DX009 (ip), vehicle: saline) was 3 of 6, the survivor count (dose: 200.0 mg/kg/injection, schedule: Q01DX009 (ip), vehicle: saline) was 0 of 6 and the survivor count (dose: 400.0 mg/kg/injection, schedule: Q01DX009 (ip), vehicle: saline) was 0 of 6.

`CCN(CC)C(=S)N1C(=O)C2C3CCC(O3)C2C1=O` (stereo not given) was tested, and the survivor count (dose: 100.0 mg/kg/injection, schedule: Q04DX002 (ip), vehicle: saline with Tween-80) was 0 of 3, the survivor count (dose: 200.0 mg/kg/injection, schedule: Q04DX002 (ip), vehicle: saline with Tween-80) was 0 of 3 and the survivor count (dose: 400.0 mg/kg/injection, schedule: Q04DX002 (ip), vehicle: saline with Tween-80) was 0 of 3.

With `CCOC(=O)C(NNc1ccccc1)C(c1ccccc1)[P+](c1ccccc1)(c1ccccc1)c1ccccc1` (stereo not given) the survivor count (dose: 150.0 mg/kg/injection, schedule: Q01DX001 (ip), vehicle: carboxymethylcellulose (CMC)) was 0 of 6 and the survivor count (dose: 300.0 mg/kg/injection, schedule: Q01DX001 (ip), vehicle: carboxymethylcellulose (CMC)) was 0 of 6.

In the case of `Cc1cc(C)c(C(=O)OCCN(C)C)c(C)c1`, the survivor count (dose: 300.0 mg/kg/injection, schedule: Q01DX001 (ip), vehicle: saline) was 1 of 6.

`N#C/C(C(N)=O)=C1\CCCc2sccc21` was tested, and the survivor count [9] was 0 of 4.

For `CCO/C([O-])=C/[P+](c1ccccc1)(c1ccccc1)c1ccccc1`, the survivor count [12] was 3 of 6, the survivor count [13] was 0 of 6 and the survivor count [10] was 0 of 6.
